Structures were worked out from names or drawings and are uncertain.
Target: Bcl-2 (Homo sapiens, UniProt P10415)
Assay: Homogeneous HTS assay for inhibitors of the Bcl-2 : Bak (72-87) BH3 domain interaction, fluorescence polarisation (2D-FIDA)
Assay type: binding
Conditions: read-out: IC50 [μM] Bcl-2, fluorescent labelled Bak BH3 domain derived peptide
Excerpt: FIG. 1 is a schematic drawing of the Bcl-2: Bak (72-87) interaction assay based on fluorescence polarisation.
The homogeneous HTS assay for inhibitors of the Bcl-2 is shown schematically in FIG. 1. BH3 domain interaction is based on fluorescence polarisation. The inherent rotational diffusion of the Bak BH3 domain derived fluorescent labelled peptide decreases upon binding to Bc1-2. This shift in rotational diffusion is quantitated using the two-dimensional fluorescence intensity distribution analysis (2D-FIDA; Kask et al. 2000, Biophys. J. 78: 1703-1713).
Two different BH3 domain derived peptide ligands were synthesised and subsequently fluorescently labelled: • a 16mer peptide covering amino acids 72-87 of the Bak protein; this peptide had been used by Wang and co-workers and Holinger and coworkers in their Bcl-2 protein binding studies; Wang and co-workers reported an equilibrium binding constant KD of ˜0.2 μM to Bcl-2 protein; • peptide sequence: GQVGRQLAIIGDDINR—N (Wang et al. 2002, Proc. Natl. Acad. Sci. U.S.A. 97: 7124-7129; Holinger et al. 1999, J. Biol. Chem. 274: 13298-13304).

By UniProt entry, the sequences of proteins in these tests, tags left out.
UniProt P10415, whole entry: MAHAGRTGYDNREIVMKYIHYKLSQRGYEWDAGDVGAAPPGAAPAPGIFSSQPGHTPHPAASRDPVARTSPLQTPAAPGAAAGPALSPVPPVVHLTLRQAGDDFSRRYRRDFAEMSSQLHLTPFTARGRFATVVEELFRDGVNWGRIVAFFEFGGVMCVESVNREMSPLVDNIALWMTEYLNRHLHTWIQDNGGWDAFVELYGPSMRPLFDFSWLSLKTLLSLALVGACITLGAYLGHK

- IC50: > 100 µM
Compound: CC(C)(C)C(=O)Cn1c(=N)n(Cc2ccccc2)c2ccccc21
